PubChem BioAssay AID1224829 – NIAID, 2016

Aim: 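Genes needed for LPS-driven NF-kappaB p65 nuclear entry in mouse macrophages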 (follow-up of hits)
Cell system: mouse RAW264.7 G9 macrophage reporter cells
Reagents: single siRNA against mouse genes, 100 nM
Timing: 2 days of siRNA knock-down, then 40 min of LPS before fixing
Treatment: LPS (Salmonella minnesota R595) at 10 ng/ml
Detection: 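Imaging of GFP-p65 after 40 min of LPS; nuclear over perinuclear ring intensity ratio, scaled to plate median and non-targeting control wells, given as z-score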
Scale: p65 translocation z-score and gene median z-score, per vendor: higher = more nuclear NF-kappaB p65 after LPS
Rule for the call: 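Active means the replicate-mean z-score lies beyond plus or minus 2, in either direction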
Calls: active = changed p65 translocation (either direction); inactive = no clear change
In all, the deposit lists about 3,800 reagents; shown is an unselected part. 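Calls cover raised and lowered translocation; gene median uses one vendor's three siRNAs; qiagen siRNAs acted more weakly than ambion siRNAs.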 A number with no mark means an inactive call. Reagents against one gene are numbered here.

gene | reagent no. | siRNA vendor or control pool | p65 translocation z-score, replicate mean | p65 translocation z-score, replicate 1 | p65 translocation z-score, replicate 2 | gene median z-score, per vendor
Ptpn13 (GeneID 19249) | 1 | ambion single siRNA | 6.58 (active) | 9.41 | 3.74 | -2.81
Ptpn13 (GeneID 19249) | 2 | ambion single siRNA | -3.21 (active) | -3.06 | -3.36 | -2.81
Ptpn13 (GeneID 19249) | 3 | ambion single siRNA | -3.44 (active) | -4.33 | -2.55 | -2.81
Ptpn13 (GeneID 19249) | 4 | qiagen single siRNA | 0.175 | 0.502 | -0.152 | 0.0397
Ptpn13 (GeneID 19249) | 5 | qiagen single siRNA | 0.79 | 0.232 | 1.35 | 0.0397
Ptpn13 (GeneID 19249) | 6 | qiagen single siRNA | -2.43 (active) | -1.39 | -3.47 | 0.0397
S1pr1 (GeneID 13609) | 1 | ambion single siRNA | -1.17 | -0.678 | -1.66 | -1.66
S1pr1 (GeneID 13609) | 2 | ambion single siRNA | -3.72 (active) | -3.76 | -3.68 | -1.66
S1pr1 (GeneID 13609) | 3 | ambion single siRNA | -0.295 | -0.295 | – | -1.66
S1pr1 (GeneID 13609) | 4 | qiagen single siRNA | -2.3 (active) | -1.21 | -3.38 | -2.76
S1pr1 (GeneID 13609) | 5 | qiagen single siRNA | 0.483 | 0.483 | – | -2.76
S1pr1 (GeneID 13609) | 6 | qiagen single siRNA | -3.4 (active) | -2.76 | -4.04 | -2.76
Grb2 (GeneID 14784) | 1 | ambion single siRNA | 1.55 | 1.79 | 1.32 | -1.1
Grb2 (GeneID 14784) | 2 | ambion single siRNA | -2.43 (active) | -2.88 | -1.98 | -1.1
Grb2 (GeneID 14784) | 3 | ambion single siRNA | -1.1 | -1.1 | – | -1.1
Grb2 (GeneID 14784) | 4 | qiagen single siRNA | 1.06 | -0.201 | 2.33 | 0.132
Grb2 (GeneID 14784) | 5 | qiagen single siRNA | 1.5 | -0.334 | 3.34 | 0.132
Grb2 (GeneID 14784) | 6 | qiagen single siRNA | -0.504 | -1.47 | 0.464 | 0.132
5830411J07Rik (GeneID 74742) | 1 | qiagen single siRNA | -1.29 | -0.0261 | -2.55 | -1.43
5830411J07Rik (GeneID 74742) | 2 | qiagen single siRNA | -0.237 | -0.153 | -0.321 | -1.43
5830411J07Rik (GeneID 74742) | 3 | qiagen single siRNA | -4.63 (active) | -4.58 | -4.68 | -1.43
Dlx6 (GeneID 13396) | 1 | qiagen single siRNA | 1.92 | 0.354 | 3.49 | 0.4
Dlx6 (GeneID 13396) | 2 | qiagen single siRNA | 1.69 | 0.446 | 2.94 | 0.4
Dlx6 (GeneID 13396) | 3 | qiagen single siRNA | -3.29 (active) | -3.47 | -3.1 | 0.4
Prickle3 (GeneID 54630) | 1 | ambion single siRNA | -0.175 | 1.12 | -1.47 | -3.04
Prickle3 (GeneID 54630) | 2 | ambion single siRNA | -4.42 (active) | -4.38 | -4.47 | -3.04
Prickle3 (GeneID 54630) | 3 | ambion single siRNA | -3.04 (active) | -2.33 | -3.75 | -3.04
Prickle3 (GeneID 54630) | 4 | qiagen single siRNA | -2.01 (active) | 0.0154 | -4.04 | 0.473
Prickle3 (GeneID 54630) | 5 | qiagen single siRNA | 1.8 | 0.93 | 2.68 | 0.473
Prickle3 (GeneID 54630) | 6 | qiagen single siRNA | 1.31 | -0.407 | 3.02 | 0.473
Or52u1 (GeneID 258377) | 1 | ambion single siRNA | 0.948 | 1.48 | 0.416 | -1.74
Or52u1 (GeneID 258377) | 2 | ambion single siRNA | -1.74 | -2.47 | -1.01 | -1.74
Or52u1 (GeneID 258377) | 3 | ambion single siRNA | -3.4 (active) | -3.23 | -3.57 | -1.74
Or52u1 (GeneID 258377) | 4 | qiagen single siRNA | 2.65 (active) | 1.15 | 4.15 | 0.417
Or52u1 (GeneID 258377) | 5 | qiagen single siRNA | -0.323 | -0.809 | 0.164 | 0.417
Or52u1 (GeneID 258377) | 6 | qiagen single siRNA | -0.24 | -1.15 | 0.671 | 0.417
Krt71 (GeneID 56735) | 1 | ambion single siRNA | -3.68 (active) | -3.68 | – | -3.73
Krt71 (GeneID 56735) | 2 | ambion single siRNA | -4.14 (active) | -4.5 | -3.77 | -3.73
Krt71 (GeneID 56735) | 3 | ambion single siRNA | -2.15 (active) | -2.15 | – | -3.73
Krt71 (GeneID 56735) | 4 | qiagen single siRNA | 2.48 (active) | 1.26 | 3.7 | 0.507
Krt71 (GeneID 56735) | 5 | qiagen single siRNA | -0.939 | -1.53 | -0.343 | 0.507
Krt71 (GeneID 56735) | 6 | qiagen single siRNA | 1.33 | -0.247 | 2.9 | 0.507
Ctsw (GeneID 13041) | 1 | ambion single siRNA | 1.44 | 2.18 | 0.695 | -1.23
Ctsw (GeneID 13041) | 2 | ambion single siRNA | -2.1 (active) | -1.54 | -2.67 | -1.23
Ctsw (GeneID 13041) | 3 | ambion single siRNA | -1.39 | -0.914 | -1.87 | -1.23
Nat2 (GeneID 17961) | 1 | ambion single siRNA | 1.44 | 1.68 | 1.19 | -3.58
Nat2 (GeneID 17961) | 2 | ambion single siRNA | -4.34 (active) | -4.93 | -3.74 | -3.58
Nat2 (GeneID 17961) | 3 | ambion single siRNA | -4.41 (active) | -5.39 | -3.42 | -3.58
Nat2 (GeneID 17961) | 4 | qiagen single siRNA | 0.579 | 0.425 | 0.733 | 1.21
Nat2 (GeneID 17961) | 5 | qiagen single siRNA | 1.37 | -0.771 | 3.51 | 1.21
Nat2 (GeneID 17961) | 6 | qiagen single siRNA | 2.02 (active) | 2.35 | 1.69 | 1.21
Fgf2 (GeneID 14173) | 1 | ambion single siRNA | -2.13 (active) | -3.72 | -0.543 | -3.61
Fgf2 (GeneID 14173) | 2 | ambion single siRNA | -2.45 (active) | -1.42 | -3.49 | -3.61
Fgf2 (GeneID 14173) | 3 | ambion single siRNA | -5.15 (active) | -6.48 | -3.82 | -3.61
Fgf2 (GeneID 14173) | 4 | qiagen single siRNA | 1.74 | 2.11 | 1.37 | 0.962
Fgf2 (GeneID 14173) | 5 | qiagen single siRNA | 1.54 | 0.558 | 2.53 | 0.962
Fgf2 (GeneID 14173) | 6 | qiagen single siRNA | -1.47 | -2.39 | -0.554 | 0.962
Bpifb5 (GeneID 228802) | 1 | ambion single siRNA | -2.91 (active) | -1.96 | -3.86 | -2.91
Bpifb5 (GeneID 228802) | 2 | ambion single siRNA | -2.91 (active) | -3.24 | -2.58 | -2.91
Bpifb5 (GeneID 228802) | 3 | ambion single siRNA | – | – | – | -2.91
Bpifb5 (GeneID 228802) | 4 | qiagen single siRNA | 0.763 | 0.438 | 1.09 | 1.3
Bpifb5 (GeneID 228802) | 5 | qiagen single siRNA | 1.52 | 1.52 | 1.52 | 1.3
Bpifb5 (GeneID 228802) | 6 | qiagen single siRNA | – | – | – | 1.3
Rnf126 (GeneID 70294) | 1 | ambion single siRNA | -1.6 | -1.91 | -1.29 | -3.51
Rnf126 (GeneID 70294) | 2 | ambion single siRNA | -5.08 (active) | -6.21 | -3.95 | -3.51
Rnf126 (GeneID 70294) | 3 | ambion single siRNA | -5.25 (active) | -7.43 | -3.07 | -3.51
Rnf126 (GeneID 70294) | 4 | qiagen single siRNA | 2.01 (active) | 2.32 | 1.71 | 0.926
Rnf126 (GeneID 70294) | 5 | qiagen single siRNA | -2.55 (active) | -2.22 | -2.88 | 0.926
Rnf126 (GeneID 70294) | 6 | qiagen single siRNA | 0.926 | 0.926 | – | 0.926

Individual results from the list:
Under “gene median z-score, per vendor”, Rnf126 (GeneID 70294) #5, siRNA vendor or control pool qiagen single siRNA reads 0.926 (active)
Or52u1 (GeneID 258377) #4, siRNA vendor or control pool qiagen single siRNA, gene median z-score, per vendor = 0.417 (active)
Value for Ptpn13 (GeneID 19249) #5, siRNA vendor or control pool qiagen single siRNA under “p65 translocation z-score, replicate mean”: 0.79
Value for Rnf126 (GeneID 70294) #1, siRNA vendor or control pool ambion single siRNA under “gene median z-score, per vendor”: -3.51
For “gene median z-score, per vendor”, Nat2 (GeneID 17961) #6, siRNA vendor or control pool qiagen single siRNA shows 1.21 (active)
Krt71 (GeneID 56735) #3, siRNA vendor or control pool ambion single siRNA, p65 translocation z-score, replicate mean → -2.15 (active)
